Assay results as given in patent US20040038290A1 (ROCKEFELLER UNIVERSITY, published 2004).
No constants are given. Whether binding was seen depends on the method and setting. For some of these results: Binding seen in cells or lysates may run through a third protein. Some results given as binding are weak or reduced against the parent protein; the word gives no strength. For some of these results: Sequences can lack the tags named with a protein.

Legend:
[1] = molecular target: T1, His-tagged recombinant Thermus thermophilus tau subunit (dnaX full length product) (Thermus thermophilus); experiment: Superose 12 gel filtration
T1 sequence: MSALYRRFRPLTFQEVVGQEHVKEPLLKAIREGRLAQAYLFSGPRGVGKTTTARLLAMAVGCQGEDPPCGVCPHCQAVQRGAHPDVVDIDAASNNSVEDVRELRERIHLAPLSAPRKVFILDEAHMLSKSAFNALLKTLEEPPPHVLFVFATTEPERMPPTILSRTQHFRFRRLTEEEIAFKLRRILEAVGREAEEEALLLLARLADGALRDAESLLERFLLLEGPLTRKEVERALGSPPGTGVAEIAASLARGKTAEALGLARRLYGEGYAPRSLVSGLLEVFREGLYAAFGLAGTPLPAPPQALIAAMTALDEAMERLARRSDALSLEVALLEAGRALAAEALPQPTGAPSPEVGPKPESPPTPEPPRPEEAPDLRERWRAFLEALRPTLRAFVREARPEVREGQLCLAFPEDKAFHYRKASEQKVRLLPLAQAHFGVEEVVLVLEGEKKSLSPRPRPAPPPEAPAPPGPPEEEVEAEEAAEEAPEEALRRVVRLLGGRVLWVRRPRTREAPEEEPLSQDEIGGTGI

[2] = molecular target: T2, Aquifex aeolicus δ subunit of DNA polymerase III (Aquifex aeolicus) (UniProt O67189); experiment: complex constitution from pure subunits, column chromatography
T2 sequence: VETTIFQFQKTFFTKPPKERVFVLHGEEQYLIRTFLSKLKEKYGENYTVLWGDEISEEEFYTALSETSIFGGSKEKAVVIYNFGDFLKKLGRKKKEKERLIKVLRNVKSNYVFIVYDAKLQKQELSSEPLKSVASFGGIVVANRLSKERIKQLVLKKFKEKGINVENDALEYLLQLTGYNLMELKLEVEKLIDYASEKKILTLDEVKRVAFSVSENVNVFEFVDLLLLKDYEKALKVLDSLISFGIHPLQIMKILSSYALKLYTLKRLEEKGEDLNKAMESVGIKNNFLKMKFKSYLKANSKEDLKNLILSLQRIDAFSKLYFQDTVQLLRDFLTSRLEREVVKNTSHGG

[3] = molecular target: T3, Aquifex aeolicus δ′ subunit of DNA polymerase III (Aquifex aeolicus); experiment: as above
T3 sequence: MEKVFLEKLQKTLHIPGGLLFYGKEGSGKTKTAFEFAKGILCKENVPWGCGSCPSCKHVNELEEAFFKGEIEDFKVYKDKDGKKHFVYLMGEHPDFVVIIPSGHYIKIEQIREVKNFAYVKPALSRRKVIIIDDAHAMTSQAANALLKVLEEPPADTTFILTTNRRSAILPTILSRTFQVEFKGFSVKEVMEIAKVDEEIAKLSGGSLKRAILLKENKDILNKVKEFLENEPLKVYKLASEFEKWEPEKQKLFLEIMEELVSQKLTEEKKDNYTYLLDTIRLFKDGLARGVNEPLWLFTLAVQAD

[4] = molecular target: T4, Aquifex aeolicus tau subunit of DNA polymerase III (Aquifex aeolicus); experiment: MonoQ co-elution of mixed pure subunits, SDS gel
T4 sequence: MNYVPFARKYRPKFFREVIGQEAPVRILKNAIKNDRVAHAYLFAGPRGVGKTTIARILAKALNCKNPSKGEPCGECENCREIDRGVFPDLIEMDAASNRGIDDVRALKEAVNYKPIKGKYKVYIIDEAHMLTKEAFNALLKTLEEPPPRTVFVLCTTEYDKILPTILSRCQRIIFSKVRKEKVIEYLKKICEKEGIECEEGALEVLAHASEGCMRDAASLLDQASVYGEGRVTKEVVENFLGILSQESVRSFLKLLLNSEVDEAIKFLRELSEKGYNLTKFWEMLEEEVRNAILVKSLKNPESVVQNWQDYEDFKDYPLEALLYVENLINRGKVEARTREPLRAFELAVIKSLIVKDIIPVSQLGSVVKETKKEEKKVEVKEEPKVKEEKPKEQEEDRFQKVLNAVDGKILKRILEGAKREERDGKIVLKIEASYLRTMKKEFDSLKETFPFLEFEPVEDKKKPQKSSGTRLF

B1: His-tagged recombinant Thermus thermophilus γ subunit (dnaX frameshift product) (protein, not shown: small tags and cut ends)
chain: MSALYRRFRPLTFQEVVGQEHVKEPLLKAIREGRLAQAYLFSGPRGVGKTTTARLLAMAVGCQGEDPPCGVCPHCQAVQRGAHPDVVDIDAASNNSVEDVRELRERIHLAPLSAPRKVFILDEAHMLSKSAFNALLKTLEEPPPHVLFVFATTEPERMPPTILSRTQHFRFRRLTEEEIAFKLRRILEAVGREAEEEALLLLARLADGALRDAESLLERFLLLEGPLTRKEVERALGSPPGTGVAEIAASLARGKTAEALGLARRLYGEGYAPRSLVSGLLEVFREGLYAAFGLAGTPLPAPPQALIAAMTALDEAMERLARRSDALSLEVALLEAGRALAAEALPQPTGAPSPEVGPKPESPPTPEPPRPEEAPDLRERWRAFLEALRPTLRAFVREARPEVREGQLCLAFPEDKAFHYRKASEQKVRLLPLAQAHFGVEEVVLVLEGEKKKA
[1]
  binding: binds

B2: Aquifex aeolicus tau subunit of DNA polymerase III (other)
chain: MNYVPFARKYRPKFFREVIGQEAPVRILKNAIKNDRVAHAYLFAGPRGVGKTTIARILAKALNCKNPSKGEPCGECENCREIDRGVFPDLIEMDAASNRGIDDVRALKEAVNYKPIKGKYKVYIIDEAHMLTKEAFNALLKTLEEPPPRTVFVLCTTEYDKILPTILSRCQRIIFSKVRKEKVIEYLKKICEKEGIECEEGALEVLAHASEGCMRDAASLLDQASVYGEGRVTKEVVENFLGILSQESVRSFLKLLLNSEVDEAIKFLRELSEKGYNLTKFWEMLEEEVRNAILVKSLKNPESVVQNWQDYEDFKDYPLEALLYVENLINRGKVEARTREPLRAFELAVIKSLIVKDIIPVSQLGSVVKETKKEEKKVEVKEEPKVKEEKPKEQEEDRFQKVLNAVDGKILKRILEGAKREERDGKIVLKIEASYLRTMKKEFDSLKETFPFLEFEPVEDKKKPQKSSGTRLF
notes: Recombinant, expressed in E. coli from pETAadnaX (pET24); also called A.ae. tau
[2]
  binding: binds
[3]
  binding: binds

B3: Aquifex aeolicus δ′ subunit of DNA polymerase III (protein)
chain: MEKVFLEKLQKTLHIPGGLLFYGKEGSGKTKTAFEFAKGILCKENVPWGCGSCPSCKHVNELEEAFFKGEIEDFKVYKDKDGKKHFVYLMGEHPDFVVIIPSGHYIKIEQIREVKNFAYVKPALSRRKVIIIDDAHAMTSQAANALLKVLEEPPADTTFILTTNRRSAILPTILSRTFQVEFKGFSVKEVMEIAKVDEEIAKLSGGSLKRAILLKENKDILNKVKEFLENEPLKVYKLASEFEKWEPEKQKLFLEIMEELVSQKLTEEKKDNYTYLLDTIRLFKDGLARGVNEPLWLFTLAVQAD
[4]
  binding: binds
